Results taken from paper PMC9803678.
Changes are numbered by the printed parent chain. In names and notes the source's numbering stands. Results are given in words; binding and its absence hold for the method and conditions named. In cells and extracts the contact can be indirect. Some entries that bind do so weakly or less than the wild type. For part of these data: Sequences can lack the tags named with a protein.

Amino acid sequences for entries named in this document (tags omitted).
UniProt P21579: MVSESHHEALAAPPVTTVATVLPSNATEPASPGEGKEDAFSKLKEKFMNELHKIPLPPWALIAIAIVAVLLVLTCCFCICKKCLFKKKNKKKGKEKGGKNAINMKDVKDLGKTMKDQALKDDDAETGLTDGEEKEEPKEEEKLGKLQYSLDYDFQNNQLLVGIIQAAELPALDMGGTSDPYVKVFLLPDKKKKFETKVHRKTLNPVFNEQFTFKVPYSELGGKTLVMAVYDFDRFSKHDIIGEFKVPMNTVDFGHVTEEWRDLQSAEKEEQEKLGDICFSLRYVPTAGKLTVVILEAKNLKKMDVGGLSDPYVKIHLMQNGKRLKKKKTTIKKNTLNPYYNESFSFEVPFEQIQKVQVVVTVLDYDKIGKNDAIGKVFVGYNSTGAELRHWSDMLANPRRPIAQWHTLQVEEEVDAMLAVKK

T1: Flag-DYRK3 (UniProt O43781)
T1 sequence: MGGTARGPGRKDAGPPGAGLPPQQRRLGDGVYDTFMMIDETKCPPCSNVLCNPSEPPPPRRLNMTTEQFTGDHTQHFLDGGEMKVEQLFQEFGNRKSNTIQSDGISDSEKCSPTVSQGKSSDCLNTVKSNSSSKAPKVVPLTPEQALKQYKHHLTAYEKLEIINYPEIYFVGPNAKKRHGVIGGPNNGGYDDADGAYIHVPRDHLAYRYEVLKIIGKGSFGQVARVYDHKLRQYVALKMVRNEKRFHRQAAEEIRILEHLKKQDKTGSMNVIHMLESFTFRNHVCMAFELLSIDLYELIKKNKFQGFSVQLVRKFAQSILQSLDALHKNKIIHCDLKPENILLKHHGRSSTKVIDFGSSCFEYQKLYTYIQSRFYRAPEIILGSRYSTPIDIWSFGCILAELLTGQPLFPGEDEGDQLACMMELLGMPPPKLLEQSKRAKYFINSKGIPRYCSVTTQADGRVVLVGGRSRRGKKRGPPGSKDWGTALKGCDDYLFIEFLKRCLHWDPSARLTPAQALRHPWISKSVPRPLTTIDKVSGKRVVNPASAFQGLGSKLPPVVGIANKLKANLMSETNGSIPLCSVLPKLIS

B1: SNAPIN-WT (in vitro pull-down) (protein, UniProt O95295 1-136)
chain: MAGAGSAAVSGAGTPVAGPTGRDLFAEGLLEFLRPAVQQLDSHVHAVRESQVELREQIDNLATELCRINEDQKVALDLDPYVKKLLNARRRVVLVNNILQNAQERLRRLNHSVAKETARRRAMLDSGIYPPGSPGK
B2: SNAPIN-T14E (in vitro pull-down) (protein, UniProt O95295 1-136)
chain: B1 chain with T14E
B3: Myc-SNAPIN (protein, UniProt O95295 1-136)
chain: B1 chain

Legend:
[1] = biological target: synaptotagmin-1 (UniProt P21579); assay: pull-down; in vitro pull-down of SNAPIN-WT, T14A or T14E with synaptotagmin-1 (Supplementary Fig. S3G, H); legend and methods not shown
[2] = biological target: T1, Flag-DYRK3; assay: co-IP; HEK293 cells transfected 24 h with Myc-SNAPIN and Flag-DYRK3; lysates immunoprecipitated with anti-Myc (Fig. 1B) or anti-Flag (Fig. 1C) antibody, immunoblot

Row | Binder | binding [1] | binding [2]
1 | B1 | binds | –
2 | B2 | binds | –
3 | B3 | – | binds
